From PubChem BioAssay AID2662 (National Center for Advancing Translational Sciences (NCATS), 2010)
Out of some 290,000 compounds screened, about 110 (0.038%) were called active. Inconclusive means that the source gave no clear call. Such entries were picked first, then a sample of the others. Calls come from the whole dose curve; as a rule, active = well fitted inhibition curve with a large enough effect in the polarisation, with a control signal flat (not every such curve was filed as active); inconclusive = small, poorly fitted or top-dose-only effect, or effect the other way, or a change in a side signal; inactive = no such curve, though single readings can be large or run the other way; the % refers to the polarisation. Where the call is inconclusive, the potency comes from a doubtful curve fit. A note “side channel” means that the fit belongs to a control or component signal, not to the main read-out.

Amino acid sequences for entries named in this document (tags omitted).
UniProt Q03164, whole entry, looked up: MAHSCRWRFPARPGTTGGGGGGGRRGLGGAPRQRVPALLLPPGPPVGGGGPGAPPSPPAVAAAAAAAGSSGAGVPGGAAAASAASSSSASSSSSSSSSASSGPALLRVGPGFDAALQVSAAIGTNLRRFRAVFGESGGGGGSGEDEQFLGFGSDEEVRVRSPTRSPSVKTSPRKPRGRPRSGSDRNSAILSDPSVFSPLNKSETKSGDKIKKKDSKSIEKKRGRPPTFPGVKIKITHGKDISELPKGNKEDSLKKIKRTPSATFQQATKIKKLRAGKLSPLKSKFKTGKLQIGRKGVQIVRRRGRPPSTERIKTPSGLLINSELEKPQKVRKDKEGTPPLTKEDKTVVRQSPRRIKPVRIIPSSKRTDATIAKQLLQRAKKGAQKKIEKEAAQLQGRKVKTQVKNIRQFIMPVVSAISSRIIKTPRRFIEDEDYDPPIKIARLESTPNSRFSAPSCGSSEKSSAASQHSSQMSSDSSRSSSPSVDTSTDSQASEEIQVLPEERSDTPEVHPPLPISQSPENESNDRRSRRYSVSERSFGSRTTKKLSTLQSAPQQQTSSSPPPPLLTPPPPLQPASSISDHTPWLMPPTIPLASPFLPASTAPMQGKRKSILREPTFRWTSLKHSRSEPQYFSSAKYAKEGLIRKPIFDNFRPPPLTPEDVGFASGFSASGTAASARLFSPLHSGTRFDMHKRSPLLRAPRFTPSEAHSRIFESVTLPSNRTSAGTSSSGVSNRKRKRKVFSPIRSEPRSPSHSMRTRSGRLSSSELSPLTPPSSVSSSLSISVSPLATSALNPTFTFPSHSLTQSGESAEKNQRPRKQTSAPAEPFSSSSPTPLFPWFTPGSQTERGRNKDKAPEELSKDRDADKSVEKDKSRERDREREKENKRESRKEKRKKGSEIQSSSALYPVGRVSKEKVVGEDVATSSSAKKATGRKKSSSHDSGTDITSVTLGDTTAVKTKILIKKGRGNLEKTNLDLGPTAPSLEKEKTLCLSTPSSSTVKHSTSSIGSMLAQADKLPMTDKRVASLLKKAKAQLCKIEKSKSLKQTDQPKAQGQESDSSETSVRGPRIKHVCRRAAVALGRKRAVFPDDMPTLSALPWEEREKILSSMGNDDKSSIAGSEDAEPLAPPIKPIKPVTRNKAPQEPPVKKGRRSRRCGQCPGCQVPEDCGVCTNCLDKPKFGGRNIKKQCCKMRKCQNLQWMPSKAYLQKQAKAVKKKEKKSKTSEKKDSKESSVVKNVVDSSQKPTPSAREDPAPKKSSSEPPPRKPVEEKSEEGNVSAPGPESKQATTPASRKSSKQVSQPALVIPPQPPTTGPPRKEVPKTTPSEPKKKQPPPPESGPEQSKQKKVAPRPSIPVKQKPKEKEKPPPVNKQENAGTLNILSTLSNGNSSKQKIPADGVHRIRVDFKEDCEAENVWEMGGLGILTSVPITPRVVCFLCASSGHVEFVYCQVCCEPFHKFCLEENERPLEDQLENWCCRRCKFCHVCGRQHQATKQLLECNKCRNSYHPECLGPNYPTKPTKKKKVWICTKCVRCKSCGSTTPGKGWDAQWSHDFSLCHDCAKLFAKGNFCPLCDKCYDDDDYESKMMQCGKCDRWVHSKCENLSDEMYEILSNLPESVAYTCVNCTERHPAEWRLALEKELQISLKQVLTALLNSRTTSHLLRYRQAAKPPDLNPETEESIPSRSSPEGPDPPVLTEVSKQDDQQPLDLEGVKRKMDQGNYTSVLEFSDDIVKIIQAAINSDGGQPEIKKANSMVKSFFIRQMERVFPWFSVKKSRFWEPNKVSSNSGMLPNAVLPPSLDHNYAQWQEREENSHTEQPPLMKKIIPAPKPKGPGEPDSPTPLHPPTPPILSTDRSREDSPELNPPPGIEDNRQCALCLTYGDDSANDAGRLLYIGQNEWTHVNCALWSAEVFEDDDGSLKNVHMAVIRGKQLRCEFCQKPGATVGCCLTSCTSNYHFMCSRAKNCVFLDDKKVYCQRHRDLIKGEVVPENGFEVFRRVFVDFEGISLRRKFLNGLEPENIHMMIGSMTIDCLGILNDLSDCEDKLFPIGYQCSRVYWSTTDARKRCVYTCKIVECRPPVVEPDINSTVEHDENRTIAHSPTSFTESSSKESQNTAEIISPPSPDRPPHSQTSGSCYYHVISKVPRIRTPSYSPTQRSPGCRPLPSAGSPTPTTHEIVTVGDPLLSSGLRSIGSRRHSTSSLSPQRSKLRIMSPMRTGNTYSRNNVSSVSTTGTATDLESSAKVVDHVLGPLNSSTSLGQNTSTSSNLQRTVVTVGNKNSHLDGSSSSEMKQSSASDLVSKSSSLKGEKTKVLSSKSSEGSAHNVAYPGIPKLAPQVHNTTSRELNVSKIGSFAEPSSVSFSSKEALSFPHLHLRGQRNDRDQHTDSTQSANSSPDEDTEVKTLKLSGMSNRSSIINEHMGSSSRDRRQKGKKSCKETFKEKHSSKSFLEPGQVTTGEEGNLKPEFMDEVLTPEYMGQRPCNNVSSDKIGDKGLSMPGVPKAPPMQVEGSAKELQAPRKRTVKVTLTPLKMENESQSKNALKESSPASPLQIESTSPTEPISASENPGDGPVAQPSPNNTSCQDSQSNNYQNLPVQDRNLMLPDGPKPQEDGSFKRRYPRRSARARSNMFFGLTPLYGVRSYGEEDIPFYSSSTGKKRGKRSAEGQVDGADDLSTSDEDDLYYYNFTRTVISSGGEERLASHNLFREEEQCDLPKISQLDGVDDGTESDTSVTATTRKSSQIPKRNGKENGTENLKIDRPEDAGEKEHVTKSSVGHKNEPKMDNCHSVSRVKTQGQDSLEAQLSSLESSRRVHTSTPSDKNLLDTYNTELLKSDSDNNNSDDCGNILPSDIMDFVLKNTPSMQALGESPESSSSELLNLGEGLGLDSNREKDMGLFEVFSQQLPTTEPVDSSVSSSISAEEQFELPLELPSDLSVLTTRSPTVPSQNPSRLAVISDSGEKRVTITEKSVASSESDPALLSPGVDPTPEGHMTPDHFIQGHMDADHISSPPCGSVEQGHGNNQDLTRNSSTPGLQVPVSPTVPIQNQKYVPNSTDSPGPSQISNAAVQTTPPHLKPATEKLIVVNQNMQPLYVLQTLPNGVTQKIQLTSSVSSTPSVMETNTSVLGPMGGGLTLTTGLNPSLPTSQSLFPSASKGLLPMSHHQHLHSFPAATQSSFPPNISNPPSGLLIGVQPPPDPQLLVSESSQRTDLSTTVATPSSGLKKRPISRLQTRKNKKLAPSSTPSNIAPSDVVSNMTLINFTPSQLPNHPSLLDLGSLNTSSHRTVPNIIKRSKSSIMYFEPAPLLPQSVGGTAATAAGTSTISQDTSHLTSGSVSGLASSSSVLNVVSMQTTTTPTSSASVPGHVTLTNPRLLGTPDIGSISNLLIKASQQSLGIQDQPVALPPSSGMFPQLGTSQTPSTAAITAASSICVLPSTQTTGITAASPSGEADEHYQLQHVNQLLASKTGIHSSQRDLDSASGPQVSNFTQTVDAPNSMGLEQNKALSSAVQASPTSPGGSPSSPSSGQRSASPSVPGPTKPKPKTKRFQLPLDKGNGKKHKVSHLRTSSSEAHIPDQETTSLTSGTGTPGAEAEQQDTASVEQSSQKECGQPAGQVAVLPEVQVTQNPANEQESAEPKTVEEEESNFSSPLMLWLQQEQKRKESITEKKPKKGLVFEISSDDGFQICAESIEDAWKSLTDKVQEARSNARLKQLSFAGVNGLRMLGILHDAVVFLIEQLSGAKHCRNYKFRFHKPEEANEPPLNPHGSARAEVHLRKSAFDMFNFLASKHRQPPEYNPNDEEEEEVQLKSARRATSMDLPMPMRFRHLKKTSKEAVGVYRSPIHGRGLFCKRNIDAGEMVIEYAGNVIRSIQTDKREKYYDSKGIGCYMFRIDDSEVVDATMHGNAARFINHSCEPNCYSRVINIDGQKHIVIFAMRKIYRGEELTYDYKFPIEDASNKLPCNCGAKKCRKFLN

target: Histone-lysine N-methyltransferase 2A (Homo sapiens) (UniProt Q03164); assay: qHTS Fluorescence Polarization Assay for Inhibitors of MLL CXXC domain - DNA interaction; settings: MLL-CXXC / FITC-HOXA9 DNA fluorescence polarization; activity change, negative = inhibition: at 115 µM (top of the series)
In short: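 Purified MLL-CXXC (added from a 7 uM solution) was preincubated 5 min at ambient with pinned compounds in 50 mM Tris-HCl pH 7.5, 50 mM NaCl, 1 mM DTT, 0.05% BSA. Fluorescein-labeled HOX-A9 DNA (50 nM solution) followed, 30 min, then polarization read.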
Potency is the fitted concentration of half-maximal effect.

Row | Structure (SMILES) | activity change, negative = inhibition | Potency
1 | COc1cc(NC(=O)CN2C(=O)COc3ccc(S(=O)(=O)N4CCCC4)cc32)cc(OC)c1 | inactive: 9.19% | 
2 | C#CCOCCOCCOCCNc1nc(N2CCN(C(=O)[C@H]([C@@H](C)CC)n3cc([C@@H](N)CO)nn3)CC2)nc(N2CCN(C(=O)[C@H](CCCCN)n3cc([C@@H](N)C(C)CC)nn3)CC2)n1 (stereo partly specified) | inactive: 15.8% | 
3 | CC(=O)Oc1ccc(C(=O)Nc2ccc(S(=O)(=O)N3CCOCC3)cc2)cc1 | inactive: 18% | 
4 | CC(=O)Nc1ccc(N=Cc2c(O)ccc3ccccc23)cc1 |  | inconclusive: 35.5 µM [fluorescent, side channel, partial curve]
5 | Cc1ccc(NC(=O)/C(CN(C)C)=N\O)cc1 |  | inconclusive: 10 µM [fluorescent, side channel, partial curve]
6 | Cc1ccc(CCc2nnc(SCC(=O)Nc3cccc(Cl)c3)n2-c2ccccc2)o1 |  | inconclusive: 14.1 µM [quencher, side channel, single point]
7 | COc1cccc(CNCCc2c[nH]c3ccccc23)c1OCc1ccccc1F |  | inconclusive: 17.8 µM [quencher, side channel, partial curve]
8 | CC1=C(C(=O)Nc2ccc(C)cc2)C(c2cccs2)NC(=S)N1 (stereo unspecified) |  | inconclusive: 14.1 µM [quencher, side channel, single point]
9 | O=C(Nc1ccccc1F)NC1CCCCCCC1 |  | inconclusive: 12.6 µM [fluorescent, side channel, single point]
10 | CCCN(CCC)c1ccc(/C=C/c2ccc3cc(OCC)ccc3n2)cc1 |  | inconclusive: 35.5 µM [fluorescent, side channel, partial curve]
11 | Cc1nn(C)cc1/C=N\NC(=O)c1csc2c1CCCC2 | inconclusive: -5.71% [phenotype inactive] | 
12 | CCN(CC)c1ccc2cc(-c3nnc(-c4ccccc4)o3)c(=O)oc2c1 |  | inconclusive: 1.12 µM [fluorescent, side channel, full curve]
13 | CCC(=O)Nc1ccc(C(=O)NNC(=O)c2cccc(C)c2)cc1 |  | inconclusive: 31.6 µM [fluorescent, side channel, partial curve]
14 | Nc1c(S(=O)(=O)c2ccccc2)c2nc3ccccc3nc2n1/N=C/c1cccc(O)c1 | inactive: -2.97% | 
15 | CCn1c(SCC(=O)Nc2ccccc2)nc2c1c(=O)n(C)c(=O)n2C | inactive: 9.12% | 
16 | CCn1c(SCC(=O)Nc2nc(C)c(C)s2)nnc1-c1cccs1 | inactive: -4.67% | 
17 | CSc1ccccc1NC(=O)CN(C)C(=O)Cc1c(F)cccc1Cl |  | inconclusive: 100 µM [fluorescent, side channel, partial curve, poor fit]
18 | COc1ccc(CCNc2ccc(C(CC(N)=O)NC(=O)c3ccc(Br)cc3)cc2[N+](=O)[O-])cc1 (stereo unspecified) |  | inconclusive: 100 µM [inhibitor, partial curve]
19 | COc1ccc(-c2nnc(-c3ccc(N)cc3)o2)cc1 | inactive: -7.64% | 
20 | CC(NC(=O)CCc1nnc(Cc2cccc(C(F)(F)F)c2)o1)C1CC1 (stereo unspecified) |  | inconclusive: 8.91 µM [inhibitor, single point]
21 | O=C1c2ccccc2-c2n[nH]c(=O)c3ccc(N4CCCCC4)c1c23 |  | inconclusive: 31.6 µM [quencher, side channel, partial curve]

Row | Structure (SMILES) | activity change, negative = inhibition | Potency
22 | O=c1[nH]c(/C=C/c2cccc([N+](=O)[O-])c2)c([N+](=O)[O-])c(=O)[nH]1 |  | inconclusive: 3.16 µM [inhibitor, full curve, poor fit]
23 | C=CCSC1=N/C(=C\c2ccc3c(c2)OCO3)C(=O)S1 | inactive: -13% | 
24 | CCOC(=O)CSC1=NC(=O)/C(=C\c2ccc(Cl)cc2)S1 |  | inconclusive: 17.8 µM [fluorescent, side channel, partial curve, poor fit]
25 | Cc1[nH]c2ccc(Br)cc2c(=O)c1CN1CCCCCC1 |  | inconclusive: 39.8 µM [fluorescent, side channel, single point]
26 | CC(=O)Nc1nc(-c2cccc3ccccc23)cs1 | inactive: -4.36% | 
27 | COc1ccc(C)cc1N(CC(=O)NC1CCCC1)C(=O)CCC(=O)Nc1nc(C)cs1 |  | inconclusive: 1.12 µM [fluorescent, side channel, full curve, poor fit]
28 | O=C(COC(=O)c1ccccc1NCCO)Nc1cc(C(F)(F)F)ccc1N1CCOCC1 |  | inconclusive: 89.1 µM [fluorescent, side channel, single point]
29 | Cc1sc(-c2ccncc2)nc1OC(=O)c1ccccc1 |  | inconclusive: 1.41 µM [fluorescent, side channel, full curve, poor fit]
30 | CN(C)C(=O)C(=O)c1cccn1-c1ccccc1C#N |  | inconclusive: 63.1 µM [fluorescent, side channel, single point]
31 | COCCNC(=S)NCCCNc1nc2cc3c(cc2cc1C#N)OCO3 | inactive: 1.5% | 
32 | COc1ccc(CN2CCNC(=O)C2CC(=O)N(C)CC2CCOCC2)c(F)c1 (stereo unspecified) |  | inconclusive: 3.16 µM [fluorescent, side channel, full curve]
33 | Cc1cc(SCC(=O)NCC2CCCO2)nc2ccccc12 (stereo unspecified) |  | inconclusive: 31.6 µM [fluorescent, side channel, partial curve]
34 | Cc1cc(S(=O)(=O)N2CCCOC2CNC(=O)C(=O)NCCc2ccco2)ccc1F (stereo unspecified) | inactive: 2.65% | 
35 | O=C(Nc1sc2c(c1C(=O)O)CCCCC2)c1ccccc1F |  | inconclusive: 11.2 µM [inhibitor, partial curve, poor fit]
36 | Oc1ccccc1N=Nc1ccccc1O | inactive: -0.83% | 
37 | O=[N+]([O-])c1cccc(S(=O)(=O)c2cccc([N+](=O)[O-])c2)c1 |  | inconclusive: 70.8 µM [fluorescent, side channel, single point]
38 | CCNS(=O)(=O)c1ccc(CCC(=O)N2CCC(C)CC2)cc1 |  | inconclusive: 39.8 µM [inhibitor, single point]
39 | COc1ccccc1-c1nnc(SC2CCc3ccccc3NC2=O)s1 (stereo unspecified) | inactive: -0.616% | 
40 | COc1ccc(C2C3=C(CC(C)(C)CC3=O)Nc3nc(C)nn32)cc1OC (stereo unspecified) |  | inconclusive: 89.1 µM [quencher, side channel, single point]
41 | CSc1ccc(CNc2ncc(-c3cccc([N+](=O)[O-])c3)n2C)cc1 |  | inconclusive: 31.6 µM [quencher, side channel, single point]
42 | COc1ccc(N=Cc2c(O)n(-c3cccc(C)n3)c(=O)c3ccccc23)c(OC)c1 |  | inconclusive: 39.8 µM [fluorescent, side channel, single point]

Row | Structure (SMILES) | activity change, negative = inhibition | Potency
43 | O=C1c2cccc3c([N+](=O)[O-])ccc(c23)C(=O)N1CC1CCCO1 (stereo unspecified) |  | inconclusive: 50.1 µM [inhibitor, partial curve]
44 | NC1=Nc2cccc3cccc1c23 | inactive: 4.02% | 
45 | CC(C)(C)OC(=O)[C@H](Cc1ccccc1)NC(=O)c1nc[nH]c1C(=O)NC1CCN(C(=O)OC(C)(C)C)CC1 |  | inconclusive: 44.7 µM [inhibitor, partial curve]
46 | COc1ccc(NC(=S)N(CCCN2CCOCC2)Cc2ccccn2)cc1 |  | inconclusive: 31.6 µM [fluorescent, side channel, single point]
47 | CCOC(=O)c1c(C)[nH]c(C)c1C(=O)CSc1nc2ccccc2c(=O)n1-c1ccccc1C |  | inconclusive: 63.1 µM [inhibitor, single point]
48 | O=C(N/N=C/c1c(O)ccc2ccccc12)c1ccc(CO)nc1 |  | inconclusive: 31.6 µM [fluorescent, side channel, single point]
49 | Cc1cnc(=O)[nH]c1SCc1ccccc1F |  | inconclusive: 1.12 µM [fluorescent, side channel, full curve]
50 | COc1ccc(OC)c(/C=N/n2c(COc3ccccc3)n[nH]c2=S)c1 |  | inconclusive: 3.55 µM [fluorescent, side channel, partial curve]
51 | CCN1C=C(Cc2ccc(OC)cc2)C2=C(C1)C(c1ccc(OC)cc1)C(C#N)=C(N)O2 (stereo unspecified) | inactive: 0.335% | 
52 | O=C1CN(C(=O)c2ccccc2F)C(c2ccccc2)c2cc(F)ccc2N1 (stereo unspecified) | inactive: 1.87% | 
53 | Cc1cccc(N2CCN(C(=O)CC(NC(=O)c3ccccc3Cl)c3ccccc3)CC2)c1C (stereo unspecified) |  | inconclusive: 39.8 µM [fluorescent, side channel, partial curve]
54 | CCN1C(=O)C(CC(=O)NC)N(NC(=O)c2ccccc2)C1=S (stereo unspecified) | inactive: -0.366% | 
55 | CC(/C=N/n1c(-c2cc(C)[nH]n2)n[nH]c1=S)=C\c1ccco1 |  | inconclusive: 70.8 µM [inhibitor, single point]
56 | CCN(CCCNC(=O)C1CCC(=O)N1Cc1ccc(F)cc1)c1cccc(C)c1 (stereo unspecified) |  | inconclusive: 15.8 µM [inhibitor, single point]
57 | COc1ccc(NC(=O)N2CCN(C(=O)C(Cc3ccc(F)cc3)NC(C)=O)CC2)cc1 (stereo unspecified) |  | inconclusive: 1.12 µM [inhibitor, partial curve, poor fit]
58 | Cc1sc(-c2ccccn2)nc1OC(=O)c1ccc(Cl)cc1 |  | inconclusive: 20 µM [fluorescent, side channel, partial curve]
59 | N#C/C(=C/c1ccc(-c2cc(C(=O)O)cc(C(=O)O)c2)o1)c1nc2ccccc2s1 |  | inconclusive: 3.16 µM [fluorescent, side channel, full curve]
60 | Cc1cc2nc3c(=O)[nH]c(=S)[nH]c3nc2cc1NC(=O)C(F)(F)F |  | inconclusive: 31.6 µM [fluorescent, side channel, partial curve]
61 | CCCCN(CC)CCCNC(=O)c1ccc(CSc2nc3ccncc3[nH]2)cc1 |  | inconclusive: 12.6 µM [fluorescent, side channel, partial curve]
